The results in this text go back to PubChem BioAssay AID662 (National Center for Advancing Translational Sciences (NCATS), 2007).

Some of the results follow. Shown are side measurements of this screen, not its main read-out; they come without a call. Compounds called inactive in the main read-out are mostly missing here. Words in brackets tell the shape of the fitted curve; partial curves, single points and poor fits give uncertain potencies.

The assay is described as follows: Cell signaling CRE-BLA (Fsk stim). The note with it: CHO CRE-bla reporter (cAMP response element driving beta-lactamase), forskolin EC10, beta-lactamase ratio; measured here: 460 nm blue channel. A digest of the protocol: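 CRE-bla CHO cells stimulated with EC10 NKH 477 (water-soluble forskolin) and compound titrations, 3 h at 37C; beta-lactamase read with CCF4 after 2 h at room temperature. Activity from 460/530 nm emission ratio, AC50 values for positive or negative modulation.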
One may read the AC50 as the concentration at which the activity in the assay is half-maximal. Turning to `COc1ccc(N2CCN(Cc3nc4c(c(=O)n(C)c(=O)n4C)n3Cc3cccc(C)c3)CC2)cc1`, the AC50 was 12.6 µM [rising, partial curve].
Take `CCCn1c(-c2cccs2)nc2ccccc21`: the AC50 is 12.6 µM [rising, partial curve].
In the case of `CN1CCN(c2ncc3nc(-c4ccc(Cl)cc4)c(=O)n(-c4ccccc4)c3n2)CC1` it was 1.58 µM [rising, full curve]; in that of `CCN1C2=C(C(=O)CCC2)C(c2ccc(O)c(Br)c2)C2=C1CCCC2=O`, 10 µM [rising, partial curve].
In the case of `COc1ccc(-c2n[nH]c(C)c2-c2ccc(OC)c(OC)c2)c(O)c1` it was 1.26 µM [rising, full curve]; in that of `COc1ccc(N(CC(=O)Nc2ccc3c(c2)OCO3)S(=O)(=O)c2ccccc2)c(OC)c1`, 10 µM [falling, partial curve].
Under `CC(C)(C)C(=O)Cn1c(=N)n(Cc2ccccc2)c2ccccc21` stands 25.1 µM [falling, partial curve].
As for `CCn1cc(C(=O)Nc2cc3c(cc2NC(C)=O)OCCO3)c(=O)c2ccc(C)nc21`, the AC50 is 2 µM [rising, single point].
Take `CCCCCOC(=O)Cn1c(SCC(=O)Nc2ccccc2)nc2c1c(=O)[nH]c(=O)n2C`: the AC50 is 12.6 µM [rising, single point].
Under `Cc1ccc(NC(=O)CSc2nnc(-c3ccccn3)n2C)cc1` stands 2.51 µM [falling, partial curve]; under `O=C(NCCCN1CCN(c2ccccc2F)CC1)C1CCN(S(=O)(=O)N2CCOCC2)CC1`, 25.1 µM [falling, single point].
In the case of `CCN(C(=O)c1cn(C)c(=O)c2cc(OC)c(OC)cc12)c1ccccc1C` it was 5.01 µM [rising, partial curve].
Under `CCOC(=O)c1ccc2c(c1)nc(SCc1cn3ccsc3n1)n2CC` stands 2.51 µM [rising, partial curve].
Take `COc1ccc(OC)c(NC(=O)CSc2nc3cccnc3n2C)c1`: the AC50 was 10 µM [rising, single point].
In the case of `CSC1=NCCN1C(=O)c1ccc(Br)o1` it was 12.6 µM [rising, single point]; in that of `CC(=O)Nc1cccc(Oc2cc(C#N)c(C#N)cc2N2CCOCC2)c1`, 5.01 µM [rising, full curve].
`CCc1ccc2c(CN(CC)Cc3nc4ccccc4c(=O)[nH]3)cc(=O)oc2c1`: the AC50 was 15.8 µM [rising, single point].
In the case of `COc1nnc(-c2ccc(C)c(S(=O)(=O)NCCO)c2)c2ccccc12` it was 10 µM [rising, partial curve].
